Measured values published in PubChem BioAssay AID720504 (National Center for Advancing Translational Sciences (NCATS), 2013).
Hit rate of the full screen: of about 360,000 compounds, about 10,000 (2.8%) were called active. The inconclusive results got no clear call from the source; some entries with a clear call stand among them for comparison. Calls come from the whole dose curve; as a rule, active = well fitted inhibition curve with a large enough effect; inconclusive = small, poorly fitted or top-dose-only effect; inactive = flat fitted curve, though single readings scatter. Where the call is inconclusive, the potency comes from a doubtful curve fit.

Amino acid sequences for entries named in this document (tags omitted).
UniProt P53350, whole entry, looked up: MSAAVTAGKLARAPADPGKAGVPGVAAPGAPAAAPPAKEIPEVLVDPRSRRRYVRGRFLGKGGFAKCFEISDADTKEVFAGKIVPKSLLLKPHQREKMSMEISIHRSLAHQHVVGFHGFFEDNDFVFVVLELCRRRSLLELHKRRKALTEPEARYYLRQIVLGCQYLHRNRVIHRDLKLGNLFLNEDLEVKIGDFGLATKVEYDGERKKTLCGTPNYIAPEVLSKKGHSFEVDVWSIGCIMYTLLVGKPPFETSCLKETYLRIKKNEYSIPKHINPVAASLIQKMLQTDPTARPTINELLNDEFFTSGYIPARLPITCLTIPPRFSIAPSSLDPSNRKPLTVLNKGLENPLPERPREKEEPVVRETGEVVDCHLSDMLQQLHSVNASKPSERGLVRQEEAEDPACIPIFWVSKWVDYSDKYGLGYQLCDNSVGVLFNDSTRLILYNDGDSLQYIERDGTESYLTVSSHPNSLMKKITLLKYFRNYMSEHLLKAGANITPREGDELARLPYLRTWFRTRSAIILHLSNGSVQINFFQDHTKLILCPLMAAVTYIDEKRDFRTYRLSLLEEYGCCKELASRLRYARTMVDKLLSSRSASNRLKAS

What follows are compounds tested against Serine/threonine-protein kinase PLK1 (Homo sapiens) (UniProt P53350) (assay: qHTS for Inhibitors of PLK1-PDB (polo-like kinase 1 - polo-box domain): Primary Screen). Conditions: Plk1 PBD binding of FITC phosphopeptide, fluorescence polarization.
% is set by controls: 0 for no effect and ±100 for the full control effect; potency is the fitted concentration of half-maximal effect.
Note: nearly all actives have a fitted effect of over 65% in size.
Throughout, for max response, negative = inhibition: series mostly up to about 57 µM.

| SMILES | max response, negative = inhibition | Potency |
| --- | --- | --- |
| CCOc1ccc(S(=O)(=O)N(CC(=O)N/N=C/c2ccc(-c3ccc([N+](=O)[O-])cc3)o2)c2ccccc2)cc1 | inactive: -10.1% | – |
| COc1cc2[nH]c(=S)nc(NCCc3ccc(C)cc3)c2cc1OC | – | active: 29.9 µM |
| O=Nc1nc2ncccn2c1-c1ccccc1 | – | active: 7.52 µM |
| O=C(c1ccccc1NS(=O)(=O)c1ccc([N+](=O)[O-])cc1[N+](=O)[O-])N1O[C@@H]2C=C[C@H]1C2 | – | inconclusive: 18.9 µM [inhibitor, partial curve] |
| NC(=O)C(c1ccc(Cl)cc1Cl)c1ncc(C(F)(F)F)cc1Cl (configuration not stated) | inactive: 5.68% | – |
| COc1ccc(-n2nnnc2S(=O)(=O)Cc2ccc(C(=O)O)cc2)cc1 | – | active: 29.9 µM |
| Cc1ccc(S(=O)(=O)N(C)C)cc1-n1c(SCC(=O)Nc2ccc(F)cc2Cl)nc2ccccc2c1=O | inactive: -6.45% | – |
| CC(C)=NOc1nc(N(C)C)nc(N2CCOCC2)n1 | – | active: 29.9 µM |
| CCOc1ccc(Nc2nc(N)c([N+](=O)[O-])c(NCc3ccccc3)n2)cc1 | inactive: 1.3% | – |
| COc1ccc(CNC(=O)CCNS(=O)(=O)c2cc(Br)cnc2N)cc1 | – | active: 3.36 µM |
| CC1=C/C(=C(/c2cc(C)c(O)c(Br)c2)c2ccccc2S(=O)(=O)O)C=C(Br)C1=O | – | inconclusive: 67 µM [inhibitor, partial curve] |
| CC(=O)N=c1sc2nc3ccccc3nc2n1N(C(C)=O)C(C)=O | – | inconclusive: 29.9 µM [inhibitor, partial curve] |
| COc1cc(OC)c(-c2nn3c(C4CCCCC4)nnc3s2)cc1OC | – | inconclusive: 16.8 µM [inhibitor, partial curve] |
| COc1cc(C(=O)NNC(=O)c2ccccc2OCc2c(C)noc2C)cc(OC)c1OC | inactive: -7.02% | – |
| CCCOc1ccc(N2C(=O)CC(SCC(N)C(=O)OCC)C2=O)cc1 (configuration not stated) | inactive: -4.99% | – |
| COc1ccc(C(=O)c2c(C(F)(F)F)oc3c2C(=O)c2ccccc2C3=O)cc1OC | inactive: 4.61% | – |
| O=c1cc(-c2cccc(F)c2)[nH]c2ccccc12 | inactive: -4.05% | – |
| NS(=O)(=O)c1ccc(CCNC(=O)c2cncc(Br)c2)cc1 | – | active: 2.99 µM |
| COCCN1C(=O)/C(=C/c2ccc(OCc3ccc(C(=O)O)cc3)c(OC)c2)SC1=Nc1ccccc1 | – | inconclusive: 37.7 µM [inhibitor, single point] |
| COc1ccc(NC(=O)Nc2ccccc2F)cc1 | inactive: -0.967% | – |
| COc1ccc(OC)c([N+](=O)[O-])c1C(N)=O | – | inconclusive: 37.7 µM [inhibitor, partial curve, poor fit] |
| CCN(CC)S(=O)(=O)c1ccc(C(=O)NC(=S)N(CCO)Cc2ccccc2)cc1 | – | inconclusive: 33.6 µM [inhibitor, partial curve] |
| O=C(O)c1ccc(-c2ccc(/C=C3\NC(=O)N(Cc4ccc(Cl)cc4)C3=O)o2)cc1 | – | inconclusive: 26.7 µM [inhibitor, single point] |
| CCN(CC)C(=O)c1sc(NC(=O)C(Sc2ccccc2)c2ccccc2)c(C(=O)OC(C)C)c1C (configuration not stated) | – | inconclusive: 21.2 µM [inhibitor, partial curve] |

| SMILES | max response, negative = inhibition | Potency |
| --- | --- | --- |
| Cn1c2ccccc2c2c(C(=O)NCc3ccco3)cn(C3CCCCC3)c(=O)c21 | – | inconclusive: 21.2 µM [inhibitor, single point] |
| CC(C)(C)c1ccc(C(=O)NCCC(=O)NCc2cccs2)cc1 | – | active: 26.7 µM |
| COc1cccc2c1C(=O)c1c(O)c3c(c(O)c1C2=O)C[C@@](O)(C(C)=O)C[C@@H]3O[C@H]1C[C@H](N)[C@H](O)[C@H](C)O1 | – | inconclusive: 4.23 µM [inhibitor, partial curve] |
| CCOC(=O)N1N=C(C)CC1(O)c1ccccc1 (configuration not stated) | inactive: -10.3% | – |
| S=C(Nc1ccc(Oc2ccccc2)cc1)N1CCN(c2ccccn2)CC1 | – | active: 23.8 µM |
| CCOc1cccc(C(=O)N/N=C/c2coc3ccccc3c2=O)c1 | – | inconclusive: 21.2 µM [inhibitor, single point] |
| Cc1ccc(-n2nc(C)c3c(C)c(CCC(=O)Nc4ccc(CN5CCCC5)cc4)c(C)nc32)cc1 | inactive: -20.3% | – |
| COc1ccccc1NS(=O)(=O)c1cc(N)ccc1N1CCCCC1 | – | active: 2.99 µM |
| CC(=O)N1c2ccccc2N(Cc2ccc(C)cc2C)C(=O)C1(C)C | inactive: -0.488% | – |
| C=CCOn1c(=O)c(-c2cc3ccccc3o2)[n+]([O-])c2ccccc21 | – | active: 29.9 µM |
| Cn1cnc([N+](=O)[O-])c1Oc1ccc2ccccc2c1 | – | inconclusive: 13.4 µM [inhibitor, partial curve] |
| CC1(C)CC(=O)C(Sc2ccccc2[N+](=O)[O-])=C(O)C1 | – | active: 10.6 µM |
| COC(=O)c1sc(N)nc1C(C)(C)C | inactive: -4.35% | – |
| CS(=O)(=O)c1ccc(-c2cccc(NC(=O)COc3ccc(Cl)cc3)c2)nn1 | – | inconclusive: 33.6 µM [inhibitor, partial curve] |
| COC(=O)c1ccc(-c2noc(CN(Cc3nccn3C)C(C)C)n2)cc1 | – | active: 16.8 µM |
| CCn1cc(C(=O)OCC(=O)Nc2c(C)cccc2C)c(=O)c2ccc(C)nc21 | inactive: -16.2% | – |
| CCCC(=O)N1CCN(C2=NS(=O)(=O)c3ccccc32)CC1 | inactive: -2.56% | – |
| CCN(C(=O)Cc1ccccc1OC)c1nnc(-c2ccncc2)s1 | inactive: -13.7% | – |
| O=C(NCc1ccccc1)c1[nH]c(C(F)(F)F)nc1-c1ccccc1 | inactive: -11.5% | – |
| O=C1/C(=C/c2ccco2)SC(=S)N1CCC(=O)N1CCCCC1CCO (configuration not stated) | – | inconclusive: 21.2 µM [inhibitor, partial curve] |
| Cc1cccc(N2C(=O)CC(SC(N)=Nc3ccccc3)C2=O)c1 (configuration not stated) | – | active: 23.8 µM |
| Cc1ccc(C)c(N2CC(C(=O)O)CC2=O)c1 (configuration not stated) | inactive: -14.8% | – |
| CN(CCc1ccccc1)C(=O)c1ccc(NC(=O)Cc2ccc(NC(=O)C3CCCN(S(=O)(=O)c4cccc([N+](=O)[O-])c4)C3)cc2)cc1 (configuration not stated) | inactive: -5.3% | – |

Another view of 13 compounds above.
SMILES	max response, negative = inhibition	Potency
Cc1ccc(-n2nc(C)c3c(C)c(CCC(=O)Nc4ccc(CN5CCCC5)cc4)c(C)nc32)cc1	inactive: -20.3%	–
COc1ccccc1NS(=O)(=O)c1cc(N)ccc1N1CCCCC1	–	active: 2.99 µM
CC(=O)N1c2ccccc2N(Cc2ccc(C)cc2C)C(=O)C1(C)C	inactive: -0.488%	–
C=CCOn1c(=O)c(-c2cc3ccccc3o2)[n+]([O-])c2ccccc21	–	active: 29.9 µM
Cn1cnc([N+](=O)[O-])c1Oc1ccc2ccccc2c1	–	inconclusive: 13.4 µM [inhibitor, partial curve]
CC1(C)CC(=O)C(Sc2ccccc2[N+](=O)[O-])=C(O)C1	–	active: 10.6 µM
COC(=O)c1sc(N)nc1C(C)(C)C	inactive: -4.35%	–
CS(=O)(=O)c1ccc(-c2cccc(NC(=O)COc3ccc(Cl)cc3)c2)nn1	–	inconclusive: 33.6 µM [inhibitor, partial curve]
COC(=O)c1ccc(-c2noc(CN(Cc3nccn3C)C(C)C)n2)cc1	–	active: 16.8 µM
CCn1cc(C(=O)OCC(=O)Nc2c(C)cccc2C)c(=O)c2ccc(C)nc21	inactive: -16.2%	–
CCCC(=O)N1CCN(C2=NS(=O)(=O)c3ccccc32)CC1	inactive: -2.56%	–
CCN(C(=O)Cc1ccccc1OC)c1nnc(-c2ccncc2)s1	inactive: -13.7%	–
O=C(NCc1ccccc1)c1[nH]c(C(F)(F)F)nc1-c1ccccc1	inactive: -11.5%	–

Quoted at random: 2 entries already listed

| SMILES | max response, negative = inhibition | Potency |
| --- | --- | --- |
| O=Nc1nc2ncccn2c1-c1ccccc1 | – | active: 7.52 µM |
| CCCC(=O)N1CCN(C2=NS(=O)(=O)c3ccccc32)CC1 | inactive: -2.56% | – |
